{"sequences": {"note": "Sequences of proteins named here, by UniProt entry; tags and fusion partners are left off.", "UniProt Q02248": "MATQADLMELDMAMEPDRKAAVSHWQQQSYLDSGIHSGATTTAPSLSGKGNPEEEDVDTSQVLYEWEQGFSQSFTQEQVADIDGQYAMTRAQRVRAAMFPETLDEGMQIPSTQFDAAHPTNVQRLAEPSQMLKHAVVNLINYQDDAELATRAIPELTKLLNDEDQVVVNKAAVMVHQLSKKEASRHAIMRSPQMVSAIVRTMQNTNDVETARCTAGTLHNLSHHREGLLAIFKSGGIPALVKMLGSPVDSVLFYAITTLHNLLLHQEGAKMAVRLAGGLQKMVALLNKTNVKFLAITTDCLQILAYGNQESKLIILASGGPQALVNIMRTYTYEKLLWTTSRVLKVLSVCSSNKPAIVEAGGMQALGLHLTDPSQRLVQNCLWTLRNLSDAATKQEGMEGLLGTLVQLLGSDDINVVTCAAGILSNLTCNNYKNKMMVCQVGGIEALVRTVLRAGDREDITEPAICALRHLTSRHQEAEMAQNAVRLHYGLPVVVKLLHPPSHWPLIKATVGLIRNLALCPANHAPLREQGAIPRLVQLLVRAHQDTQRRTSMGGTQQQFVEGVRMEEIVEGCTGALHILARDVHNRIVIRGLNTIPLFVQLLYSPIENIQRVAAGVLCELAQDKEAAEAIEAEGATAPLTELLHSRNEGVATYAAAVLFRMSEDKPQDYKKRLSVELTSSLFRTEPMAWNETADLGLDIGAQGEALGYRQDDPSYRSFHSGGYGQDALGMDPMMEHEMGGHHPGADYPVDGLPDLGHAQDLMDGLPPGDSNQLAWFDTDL", "UniProt Q9Y230": "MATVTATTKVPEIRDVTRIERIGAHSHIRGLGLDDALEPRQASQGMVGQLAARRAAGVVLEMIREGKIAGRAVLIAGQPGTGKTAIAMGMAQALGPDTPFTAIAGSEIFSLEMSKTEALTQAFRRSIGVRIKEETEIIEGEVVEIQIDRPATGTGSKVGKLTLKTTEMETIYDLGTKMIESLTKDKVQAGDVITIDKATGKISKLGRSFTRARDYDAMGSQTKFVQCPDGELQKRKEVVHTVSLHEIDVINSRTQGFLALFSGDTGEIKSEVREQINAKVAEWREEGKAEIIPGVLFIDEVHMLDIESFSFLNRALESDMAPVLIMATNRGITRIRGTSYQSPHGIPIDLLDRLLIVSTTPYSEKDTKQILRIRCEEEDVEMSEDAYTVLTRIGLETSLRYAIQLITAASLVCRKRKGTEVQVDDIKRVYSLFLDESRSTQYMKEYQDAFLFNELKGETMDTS", "UniProt Q9WTM5": "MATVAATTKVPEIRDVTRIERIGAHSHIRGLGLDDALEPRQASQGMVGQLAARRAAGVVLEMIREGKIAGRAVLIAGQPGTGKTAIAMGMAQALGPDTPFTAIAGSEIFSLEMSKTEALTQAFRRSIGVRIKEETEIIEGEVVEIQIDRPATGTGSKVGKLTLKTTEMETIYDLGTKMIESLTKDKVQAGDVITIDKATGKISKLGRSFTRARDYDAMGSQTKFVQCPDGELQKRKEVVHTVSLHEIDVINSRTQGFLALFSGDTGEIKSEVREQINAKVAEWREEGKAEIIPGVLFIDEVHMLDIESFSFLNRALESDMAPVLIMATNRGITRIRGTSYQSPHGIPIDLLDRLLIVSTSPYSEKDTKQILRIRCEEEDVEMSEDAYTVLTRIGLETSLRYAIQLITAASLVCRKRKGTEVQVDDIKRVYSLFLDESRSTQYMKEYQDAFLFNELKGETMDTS", "UniProt P35222": "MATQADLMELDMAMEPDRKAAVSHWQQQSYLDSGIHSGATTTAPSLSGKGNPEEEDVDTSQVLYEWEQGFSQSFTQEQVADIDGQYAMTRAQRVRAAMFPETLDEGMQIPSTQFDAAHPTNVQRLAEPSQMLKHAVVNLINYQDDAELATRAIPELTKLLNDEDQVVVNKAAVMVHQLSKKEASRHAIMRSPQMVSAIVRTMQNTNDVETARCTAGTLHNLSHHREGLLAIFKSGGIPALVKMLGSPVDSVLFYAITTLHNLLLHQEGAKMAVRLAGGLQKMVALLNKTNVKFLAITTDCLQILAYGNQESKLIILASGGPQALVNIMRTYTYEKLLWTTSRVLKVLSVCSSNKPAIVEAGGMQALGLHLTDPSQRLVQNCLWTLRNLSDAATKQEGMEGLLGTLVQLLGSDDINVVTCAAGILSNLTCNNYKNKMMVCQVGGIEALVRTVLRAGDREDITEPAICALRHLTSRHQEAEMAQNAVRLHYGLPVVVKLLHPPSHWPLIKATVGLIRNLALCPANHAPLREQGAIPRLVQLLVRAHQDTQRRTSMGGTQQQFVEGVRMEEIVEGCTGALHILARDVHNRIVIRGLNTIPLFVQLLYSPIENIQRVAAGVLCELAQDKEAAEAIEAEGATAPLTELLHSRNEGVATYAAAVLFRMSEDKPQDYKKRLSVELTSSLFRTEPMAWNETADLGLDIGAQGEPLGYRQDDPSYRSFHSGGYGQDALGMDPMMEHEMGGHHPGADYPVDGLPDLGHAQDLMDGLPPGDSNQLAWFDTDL", "UniProt Q16665": "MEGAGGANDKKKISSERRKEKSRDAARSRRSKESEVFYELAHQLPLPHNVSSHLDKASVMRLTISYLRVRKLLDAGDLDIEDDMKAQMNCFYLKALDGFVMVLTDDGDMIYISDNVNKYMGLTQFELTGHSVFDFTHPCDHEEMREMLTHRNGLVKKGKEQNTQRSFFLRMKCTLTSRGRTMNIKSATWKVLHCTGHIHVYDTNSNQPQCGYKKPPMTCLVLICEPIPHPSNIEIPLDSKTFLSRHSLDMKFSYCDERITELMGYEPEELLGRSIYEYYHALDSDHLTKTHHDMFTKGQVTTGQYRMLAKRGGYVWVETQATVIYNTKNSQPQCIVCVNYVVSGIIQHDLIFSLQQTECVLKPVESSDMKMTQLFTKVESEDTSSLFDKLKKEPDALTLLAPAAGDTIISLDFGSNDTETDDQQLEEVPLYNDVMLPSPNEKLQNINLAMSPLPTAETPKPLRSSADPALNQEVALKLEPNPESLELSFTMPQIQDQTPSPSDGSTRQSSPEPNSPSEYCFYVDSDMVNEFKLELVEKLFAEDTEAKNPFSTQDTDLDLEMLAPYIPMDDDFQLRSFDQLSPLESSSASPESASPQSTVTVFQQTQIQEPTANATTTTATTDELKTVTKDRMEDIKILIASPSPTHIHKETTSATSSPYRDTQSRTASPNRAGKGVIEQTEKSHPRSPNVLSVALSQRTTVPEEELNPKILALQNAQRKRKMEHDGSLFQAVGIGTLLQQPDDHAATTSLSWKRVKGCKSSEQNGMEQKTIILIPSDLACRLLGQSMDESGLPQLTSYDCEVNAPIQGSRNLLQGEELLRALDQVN"}, "source": "paper PMC9439681", "key": {"[1]": {"target": "β-catenin (mouse (endogenous in KP tumor-propagating cells)) (UniProt Q02248)", "assay": "proximity ligation; RUVBL2-β-catenin proximity ligation in tumor-propagating cells (TPCs), treated with vehicle or EHMT2 inhibitor; DAPI counterstain"}, "[2]": {"target": "RUVBL2 (human (endogenous in A549)) (UniProt Q9Y230)", "assay": "co-IP; A549 lysates immunoprecipitated with RUVBL2 antibody (Dynabeads Co-IP kit), blotted for β-catenin and HIF1-α; cells cultured under hypoxic conditions (1% O2) or ambient O2"}}, "note": "Results are given in words; binding and its absence hold for the method and conditions named. In cells and extracts the contact can be indirect. Some entries that bind do so weakly or less than the wild type."}
{"substance": "RUVBL2 (from UniProt Q9WTM5 1-463)", "values": [{"measurement": "binding", "setting": "[1]", "value": "binds"}]}
{"substance": "β-catenin (from UniProt P35222 1-781)", "values": [{"measurement": "binding", "setting": "[2]", "value": "binds"}]}
{"substance": "HIF1-α (from UniProt Q16665 1-826)", "values": [{"measurement": "binding", "setting": "[2]", "value": "binds"}]}
